Sequences of proteins named here, by UniProt entry; tags and fusion partners are left off. Residues count along the entry.
UniProt P30405, 30-207 limits assumed: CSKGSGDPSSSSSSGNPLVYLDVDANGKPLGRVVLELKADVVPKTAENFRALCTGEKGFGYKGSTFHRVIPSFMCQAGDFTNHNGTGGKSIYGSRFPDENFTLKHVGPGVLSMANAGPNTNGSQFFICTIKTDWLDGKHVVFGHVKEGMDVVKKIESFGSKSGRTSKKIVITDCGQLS

According to patent US20250243219A1, “MACROCYCLIC COMPOUNDS AND USES THEREOF” (Cypralis Limited, priority 2022, published 2025):

What was measured:
SH-SY5Y cells = assay: Thapsigargin treated cell death assay in SH-SY5Y cells; details: compound at 10 μM; positive = protection from cell death, negative = compound toxicity
From the text: Thapsigargin raises intracellular free calcium (Ca^2+) by potently inhibiting the endoplasmic reticulum Ca-ATPase, which sequesters Ca^2+ from the cytosol. The increased cytosolic Ca^2+ concentration is buffered by mitochondria by exchanging Ca^2+ for K, leading to depolarisation in the inner mitochondrial membrane and permeability transition.
The thapsigargin treated Jurkat cell death assay is a homogeneous 96 well plate based assay for cell death, instigated by the opening of the mitochondrial permeability transition pore (MPTP). The addition of thapsigargin to Jurkat cells results in an influx of calcium, the increase in intracellular calcium will initially be buffered by the mitochondria, but eventually the increasing calcium concentration will result in the opening of the MPTP, resulting in cell death.
CellTox™ Green is a dye which is unable to enter the cell until cell death leads to the loss of membrane integrity. Once this happens the CellTox™ Green enters the cell, binds to the cell's DNA and emits a fluorescent signal. […] Unless otherwise stated, the assay is typically run using a range of three compound concentrations of 1, 3 and 10 μM in triplicate and is read kinetically over a period of 24 hours. Compounds are added 30 minutes before the addition of thapsigargin. […] Results are typically calculated at the 8 hour time point and the kinetic data is also reported. […]

[1] = test system: permeabilised HepG2 cells; assay: Calcium retention capacity (CRC) assay in permeabilised HepG2 cells (MPTP opening); parameters: unit not given here; details: compound at 10 μM; digitonin permeabilised HepG2 cells
Procedure: The use of permeabilised cells means that inhibitory compounds that may not normally enter non-permeabilised cells are more likely to be active.
The calcium retention capacity (CRC) is a measure of the capability of mitochondria to retain calcium, primarily in the form of calcium phosphates, in the mitochondrial matrix.
In a CRC assay, the calcium indicator Calcium Green-5N (InVitrogen) is utilized. […] The assay is carried out in HepG2 (human hepatocellular carcinoma) cells which are digitonin permeabilized. Trains of calcium pulses (typically 5 μM additions) are added which results in a sudden increase in fluorescence which is then reduced by mitochondrial buffering. The cells will reach a point at which the calcium addition is no longer buffered, an indication that the MPTP has opened (mitochondrial permeability transition).
The experiment is performed with and without inhibitor. A compound that acts to inhibit the mitochondrial pore opening will result in a greater requirement for calcium to reach the transition point. The results are normalised to a positive control (cyclosporin A) in each experiment. The results are shown in column 3 of Table 5 as CRC [10 μM] (ratio vs CsA). The method of digitonin permeabilised whole cell CRC assay is similar to that used by Chiara et al. (PLoS One, March, 3, 3, e1852 (2008)).

cyclophilin D = cyclophilin D (Homo sapiens (Human), UniProt P30405); assay: Functional peptidyl prolyl isomerase (PPIase) spectrophotometric assay, cyclophilin D; details: read-out: Ki CypD; second value of CypA/D cell
From the text: Cyclophilins are enzymes that catalyse the cis-trans isomerisation of peptide bonds to the amino acid proline. This event is important in many biological processes, including protein folding and signal transduction. […] The method to measure this activity and its inhibition is similar to that described by Jankowski (Analytical Biochemistry, 252, 2, 299-307 (1997)). The assay measures the cis to trans isomerisation of a peptide substrate catalysed by a PPlase enzyme using a UV/Vis spectrophotometer. This assay is a manual single cuvette-based assay. A first order rate equation is fitted to the absorbance data to obtain a rate constant. The catalytic rate is calculated from the enzymatic rate minus the background rate. The Ki (the concentration required to produce half maximum inhibition) for an inhibitor is obtained from the rate constant plotted against the inhibitor concentration. Typically, a 6-point dose response curve is obtained from duplicates and a Ki determined. Data are given in Table 5 as Ki [nM] for cyclophilins A and D, expressed in column 2 of Table 5 as Ki (cypA)/Ki (cypD).

Ki (cyclophilin D): 1.7 µM
SMILES: C[C@@H]1NC(=O)[C@H](CC2CCCNC2)OC(=O)C(C)(C)/C=C/c2ccc3ccc(nc3c2)N(C)NC(=O)[C@@H]2CCCN(N2)C1=O (stereo partly drawn) [Compound (56)]
SYSY [10 μM] % recovery (SH-SY5Y cells): 9%
CRC [10 μM] [1]: 8.3

The structures given here were assigned with low confidence; some may be wrong.
